{"source": "patent US4395403A", "about": "“Polypeptides, processes for their production, pharmaceutical compositions comprising said polypeptides and their use” (Sandoz Ltd., priority 1979, dated 1983)", "tested_on": "GH-secretion (serum GH-level)", "experiment": "TEST I: depression of serum GH-levels in the rat (GH-secretion inhibition)", "type": "in vivo", "conditions": "male rats under Nembutal narcosis, 15 minutes after administration", "protocol": "This test (TEST I) is carried out employing male rats under Nembutal narcosis. The test-substance is administered at varying, logarithmically staggered doses employing at least 4 rats per dose. The rats are decapitated 15 minutes after administration, the blood is collected and the serum GH-level determined by radio-immuno-assay.\nPolypeptides in accordance with the invention are active in this test when administered at a dosage in the range of from 0.01 to 100 μg/kg i.v. or i.m.", "note": "Not every detail of the peptide structures is certain; ends, links or a residue may be inferred."}
{"smiles": "C[C@@H](O)[C@@H]1NC(=O)[C@H](CCCCN)NC(=O)[C@@H](Cc2c[nH]c3ccccc23)NC(=O)[C@H](Cc2ccccc2)NC(=O)[C@@H](NC(=O)[C@H](N)Cc2ccccc2)CSSC[C@@H](C(=O)N[C@H](CO)[C@@H](C)O)NC1=O", "note": "[Example 1]", "values": [{"measurement": "ID50 in TEST I (amount required to effect 50% inhibition of serum GH-level compared with untreated controls)", "setting": "i.m.", "value": 0.084, "unit": "µg/kg"}, {"measurement": "ID50 in TEST I (amount required to effect 50% inhibition of serum GH-level compared with untreated controls)", "setting": "i.v.", "value": 0.09, "unit": "µg/kg"}]}
